# For at least one compound, name, drawing or mass did not settle the structure.
# Tested on: sepsis patients
# Assay: treatment course of sepsis in blood culture positive patients
# Type: in vivo, human
# Conditions: number of cases; observation for 1 year; Bio3 1 g 3 times a day where given; listed as imipenem/cilastatin
# Protocol: The sepsis treatment agent was administered 3 times a day at 1 g each time using a live bacteria formulation of a mix of the three bacteria. The patients were hospitalized in a psychiatric hospital. The patients were blood culture positive which is a predictor for bacterial translocation. In 4 cases, imipenem/cilastatin (IPM/CS) was administered, and in 4 cases, latamoxef (LMOX) was given. During the observation period, CRP (C reactive protein) increased slightly, and E. coli and enterococcus and the like were detected by culturing blood. After observation for 1 year, two cases died from both groups, and two cases were cured.
compound,measurement,value
"C[C@@H](O)[C@H]1C(=O)N2C(C(=O)O)=C(SCCN=CN)C[C@H]12 [Imipenem, imipenem/cilastatin]",Cured,two
same,Deaths,two

# Source: patent US20090010891A1, “Sepsis Treatment Agent” (Toa Pharmaceutical Co., Ltd., priority 2007, published 2009)
